{"source": "patent US20240382626A1", "about": "“IRRADIATION AMENABLE LIPOSOMAL DYE AGGREGATES AND METHODS OF SYNTHESIS AND USE THEREOF” (Board of Regents, The University of Texas System, priority 2023, published 2024)", "test_system": "mouse kidney and surrounding tissue", "experiment": "In vivo photoacoustic sO2 measurement after contrast agent injection", "design": "species or system mice", "description": "Particle circulation was monitored by imaging the mouse kidney and surrounding tissue. The kidney is a high blood flow organ that has the distinct advantage of being easily and rapidly identifiable using ultrasound imaging. Simple setup and identification decreases the amount of time animals are under anesthesia and limits any potential artificial lowering of SO2 due to prolonged exposure to anesthetic agents. Once prepped, mice placed in the imaging system were imaged with power-doppler to confirm blood flow and baseline values for SO2 and contrast agent signals (FIG. 13). Following a bolus injection of a 5 mg/kg dose of contrast agent via the tail vein, the same region was monitored at varying time points. After processing with FUJIFILM VisualSonics' proprietary spectral unmixing software the images were analyzed using in-house MATLAB software. Power-doppler images guide the placement of ROIs around areas of high blood flow allowing isolation and calculation of SO2 and contrast agent signal over the course of imaging.\nTo assess their performance in vivo, particles were injected intravenously via the tail vein. Particle circulation was monitored by imaging the mouse kidney and surrounding tissue. […] Following a bolus injection of contrast agent via the tail vein, the same region was monitored at multiple time points. […]", "data": [{"smiles": "CC1(C)C(/C=C/C=C/C=C/C=C2\\N(CCCCS(=O)(=O)O)c3ccc4ccccc4c3C2(C)C)=[N+](CCCCS(=O)(=O)[O-])c2ccc3ccccc3c21", "note": "[IcG, Indocyanine Green]", "values": [{"measurement": "change in measured sO2 during imaging", "setting": "5 mg/kg bolus, tail vein", "result": "15 to 20", "unit": "%"}, {"measurement": "effect on measured sO2 (in words)", "setting": "5 mg/kg dose, varying time points after injection", "result": "does cause a significant drop"}]}]}
